From EP3035931B1, “COMPOSITION FOR REDUCING NERVOUS SYSTEM INJURY AND METHOD OF MAKING AND USE THEREOF” (Morehouse School of Medicine, priority 2013, dated 2015)
At least one compound was matched to its structure with a doubt left.

Assay: Mouse 60 min MCAO, intracerebroventricular injection one hour after MCAO, infarct volume
Conditions: mice, evaluated one day after ischemia induction, FIG. 18

For `NC(=NCc1ccccc1)NC(=O)c1nc(Cl)c(N)nc1N` [benzamil], the infarct volume was “effectively reduce infarct volume”.
